Experimental data: US10414798B2, “Cancer stem cell targeting peptide and use thereof” (AGRICULTURAL TECHNOLOGY RESEARCH INSTITUTE, priority 2015, dated 2019)

The substances below were run on mouse embryonic stem cell (mESC) (assay: M13 phage display selection, secondary CSC/ESC HP-library (ESC bound fraction)). Details: ESC bound fraction.
Type: binding
Method: The M13 PhD-7 library (NEB, E8100) which contains 10^9 independent clones was purchased from New England Biolabs Inc. 10^13 plaque firming units (pfus) of M13 PhD-7 phages in 10 mL DMEM were pre-adsorbed by cancer cells in a T75 flask twice, each for 1 hour. Subsequently, the supernatant was transferred to a T25 flask containing 5×10^6 CSCs and incubated for 1 hour. The unbound and weakly associated phages were removed by centrifugation and suspension three times in DMEM/0/2% BSA. The cell pellet was suspended in 1 mL PBS containing 10^9 E. coli ER2738 and incubated in a shaker for 1 hour. Then 10 mL LB/5 mM MgCl2 was added. After being cultured over-night at 37° C., the cells were removed by centrifugation and phages in the supernatant were titrated. The aforementioned selection procedures were carried out for three rounds for EMT6 and PANC-1 to obtain the primary EMT6 CSC homing peptide (HP)- and PANC-1 CSC HP-library, respectively. Subsequently, M13 plaques were picked up to prepare the DNA for sequencing. The EMT6 CSC HP-library was further selected by CT26 CSCs, Hepa1-6 CSCs, and mouse embryonic stem cell (mESC) again to prepare the secondary CT26 CSC HP-, Hepa1-6 CSC HP-, and CSC/ES HP-library. The unbound fraction after mESC adsorption was collected and assigned as the CSC PH-library.
The primary CSC HP-library was selected directly once by either CT26 or Hepa1-6 CSCs to test the bias of CSC HP affinities to different kinds of cancers. […] The bias of CSC HP affinities between CSCs and embryonic stem cells (ESCs) was another interesting issue. […] Two new peptide sequences, KIYTTLD (CSC HP-9) (SEQ ID NO: 11) and NLQPPAY (CSC HP-12) (SEQ ID NO: 12), were read in the ESC unbound fraction (CSC HP-library) (Table 1).

Compared with “FPFTKNL (Cancer Stem Cell Targeting Peptide) [CSC HP-4, synthetic peptide that targets cancer stem cells]”, “YHMPALM (Cancer Stem Cell Targeting Peptide) [CSC HP-6, synthetic peptide that targets cancer stem cells]” is lower in “times of CSC HP sequence detected, Secondary CSC/ESC (n = 20)” value (from here on “times … Secondary CSC/ESC (n = 20)”): 2 for the first, 1 for the second.

Going from “ATYGNLW (Cancer Stem Cell Targeting Peptide) [CSC HP-5, synthetic peptide that targets cancer stem cells]” to “SQPTWMF (Cancer Stem Cell Targeting Peptide) [CSC HP-1, synthetic peptide that targets cancer stem cells]”, the “times … Secondary CSC/ESC (n = 20)” value rises from 1 to 11.

“GMMSSPP (Cancer Stem Cell Targeting Peptide) [CSC HP-2, synthetic peptide that targets cancer stem cells]” and “HGGVRLY (Cancer Stem Cell Targeting Peptide) [CSC HP-7, synthetic peptide that targets cancer stem cells]” are the same in “times … Secondary CSC/ESC (n = 20)” value: 1 for the first, 1 for the second.

Compared with “ELTPLTL (Cancer Stem Cell Targeting Peptide) [CSC HP-8, synthetic peptide that targets cancer stem cells]”, “FSGGGNH (Cancer Stem Cell Targeting Peptide) [CSC HP-3, synthetic peptide that targets cancer stem cells]” is lower in “times … Secondary CSC/ESC (n = 20)” value: 2 for the first, 1 for the second.
